The labels stand for the following.
B1: FTL-AP1_AP1: fusion polypeptide in which AP1S was fused to N-terminal of FTL_GG-AP1S (designed binder)
chain: MRKRLDRNGGGSGMSSQIRQNYSTDVEAAVNSLVNLYLQASYTYLSLGFYFDRDDVALEGVSHFFRELAEEKREGYERLLKMQNQRGGRALFQDIKKPAEDEWGKTPDAMKAAMALEKKLNQALLDLHALGSARTDPHLCDFLETHFLDEEVKLIKKMGDHLTNLHRGSRKRLDRNGGPEAGLGEYLFERLTLKHD
modifications: One monomer is given; it assembles into a 24-mer ferritin cage.
notes: Expressed from pET28a(+) via NdeI/XhoI and purified on Ni-NTA (His tag); also called ferritin having two inserted AP1 peptides; not shown: His tag from the pET28a(+) vector (Ni-NTA purification)
B2: FTL-GG-AP1S: ferritin having AP1S inserted in GG cassette (human ferritin light chain, fourth loop) (designed binder)
chain: MSSQIRQNYSTDVEAAVNSLVNLYLQASYTYLSLGFYFDRDDVALEGVSHFFRELAEEKREGYERLLKMQNQRGGRALFQDIKKPAEDEWGKTPDAMKAAMALEKKLNQALLDLHALGSARTDPHLCDFLETHFLDEEVKLIKKMGDHLTNLHRGSRKRLDRNGGPEAGLGEYLFERLTLKHD
modifications: One monomer is given; it assembles into a 24-mer ferritin cage.
notes: It forms a ferritin-like cage (24-mer); also called FTL-AP1; not shown: His tag from the pET28a(+) vector (Ni-NTA purification, anti-His probe)
B3: FTL-GP-AP1S: ferritin having AP1S inserted in GP cassette (human ferritin light chain, fourth loop) (designed binder)
chain: B2 chain with G155L, S156G, R157S, K158R, R159K, L160R, D161L, R162D, N163R, G164N
modifications: One monomer is given; it assembles into a 24-mer ferritin cage.
notes: pET28a(+) expression with Ni-NTA purification (His tag); Cage-forming; not shown: His tag from the pET28a(+) vector (Ni-NTA purification, anti-His probe)
B4: FTL-GG-AP1L: ferritin having AP1L inserted in GG cassette (human ferritin light chain, fourth loop) (designed binder)
chain: MSSQIRQNYSTDVEAAVNSLVNLYLQASYTYLSLGFYFDRDDVALEGVSHFFRELAEEKREGYERLLKMQNQRGGRALFQDIKKPAEDEWGKTPDAMKAAMALEKKLNQALLDLHALGSARTDPHLCDFLETHFLDEEVKLIKKMGDHLTNLHRGSCRKRLDRNCGGPEAGLGEYLFERLTLKHD
modifications: One monomer is given; it assembles into a 24-mer ferritin cage.
notes: pET28a(+) expression with Ni-NTA purification (His tag); Cage-forming; also called 157cysAP1-PBNC; not shown: His tag from the pET28a(+) vector (Ni-NTA purification, anti-His probe)
B5: FTL-GP-AP1L: ferritin having AP1L inserted in GP cassette (human ferritin light chain, fourth loop) (designed binder)
chain: MSSQIRQNYSTDVEAAVNSLVNLYLQASYTYLSLGFYFDRDDVALEGVSHFFRELAEEKREGYERLLKMQNQRGGRALFQDIKKPAEDEWGKTPDAMKAAMALEKKLNQALLDLHALGSARTDPHLCDFLETHFLDEEVKLIKKMGDHLTNLHRLGSCRKRLDRNCGPEAGLGEYLFERLTLKHD
modifications: One monomer is given; it assembles into a 24-mer ferritin cage.
notes: as for B3

Amino acid sequences for entries named in this document (tags omitted). Residues count along the entry.
UniProt P24394, residues 26-825: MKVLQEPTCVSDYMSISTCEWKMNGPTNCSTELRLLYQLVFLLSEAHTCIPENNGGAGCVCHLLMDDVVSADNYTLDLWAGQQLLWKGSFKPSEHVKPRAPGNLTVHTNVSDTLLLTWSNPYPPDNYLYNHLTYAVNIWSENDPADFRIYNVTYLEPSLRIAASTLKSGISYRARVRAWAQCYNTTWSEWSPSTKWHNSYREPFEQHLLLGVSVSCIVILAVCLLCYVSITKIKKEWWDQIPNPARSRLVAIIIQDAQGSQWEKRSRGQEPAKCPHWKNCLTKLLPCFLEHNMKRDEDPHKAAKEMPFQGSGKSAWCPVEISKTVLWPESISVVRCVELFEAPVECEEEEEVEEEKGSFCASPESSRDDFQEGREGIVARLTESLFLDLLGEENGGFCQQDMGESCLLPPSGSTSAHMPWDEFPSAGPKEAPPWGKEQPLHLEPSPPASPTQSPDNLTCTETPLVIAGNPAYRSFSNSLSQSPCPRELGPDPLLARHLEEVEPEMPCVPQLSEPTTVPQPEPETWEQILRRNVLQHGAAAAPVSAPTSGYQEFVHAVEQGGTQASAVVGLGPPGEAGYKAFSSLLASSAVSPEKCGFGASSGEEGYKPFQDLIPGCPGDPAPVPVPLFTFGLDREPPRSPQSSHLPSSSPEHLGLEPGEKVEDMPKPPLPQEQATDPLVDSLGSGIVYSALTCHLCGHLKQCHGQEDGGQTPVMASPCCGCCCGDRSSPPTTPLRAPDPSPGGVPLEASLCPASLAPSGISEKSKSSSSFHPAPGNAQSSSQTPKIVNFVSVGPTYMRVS

Changes are numbered by the printed parent chain. Results are given in words; binding and its absence hold for the method and conditions named. Some binding calls cover weakened binding; strength is not graded here. For some assays here: Tags and fused reporters may be left off the sequences shown.

One test deals with IL-4 receptor protein immobilised on carboxymethyl dextran chip (SPR) (Homo sapiens (Human)) (UniProt P24394). Description: SPR, IL-4 receptor protein immobilised on carboxymethyl dextran chip, ferritin in flow, 0.520-4.166 nM. A general note: SPR reads the build-up and loss of mass on a sensor chip optically.
In the case of B1, the binding entry was “binds”.

Another test has as its target IL-4 receptor on A549 cells overexpressing IL-4 receptor (human) (UniProt P24394). Description: FACS on A549 cells overexpressing IL-4 receptor, ferritin at 400 nM and 200 nM, anti-ferritin light chain antibody and Alexa Fluor 488 secondary.
On to B1, for which the binding entry is “binds”.

On to B2, for which the binding result is on record as “binds”.

For the next test, the target named is IL-4 receptor protein immobilised on carboxymethyl dextran chip (SPR) (Homo sapiens (Human)) (UniProt P24394). The test can be described thus: SPR, IL-4 receptor immobilised.
Regarding B2, the binding entry is given as “binds”.

Take B3: the binding result is recorded as “binds”.

On to B4, for which the binding result is given as “binds”.

As to B5, the binding entry is “binds”.

The next test addresses IL-4 receptor on A549 cells overexpressing IL-4 receptor (human) (UniProt P24394). The test can be described thus: confocal microscopy on A549 cells, 400 nM.
As for B2, the binding result was “binds”.

Turning to B3, the binding entry is “binds”.

With B4, the binding result is given as “binds”.

Regarding B5, the binding entry is reported as “binds”.

The next test has as its target IL-4 receptor protein immobilised on carboxymethyl dextran chip (SPR) (Homo sapiens (Human)) (UniProt P24394). The test can be described thus: SPR, IL-4 receptor protein immobilised on carboxymethyl dextran chip, ferritin in flow, 0.260-4.166 nM.
For the molecule B2, the binding entry is on record as “binds”.

For another test, the target named is IL-4 receptor on A549 cells overexpressing IL-4 receptor (human) (UniProt P24394). The test can be described thus: FACS on A549 cells overexpressing IL-4 receptor, ferritin at 400 nM, detection with anti-ferritin light chain antibody and Alexa Fluor 488 secondary.
In the case of B2, the binding entry is “binds”.

For the molecule B3, the binding result was “binds”.

Take B4: the binding entry was “binds”.

B5: the binding result is listed as “binds”.

A further test deals with IL-4 receptor protein immobilised on carboxymethyl dextran chip (SPR) (Homo sapiens (Human)) (UniProt P24394). The test can be described thus: SPR, IL-4 receptor protein immobilised on carboxymethyl dextran chip, ferritin in flow, 0.651-10.416 nM.
B2: the binding result is “binds”.

Regarding B3, the binding entry is reported as “binds”.

For B4, the binding entry is “binds”.

As for B5, the binding entry was “binds”.

The target of the next test is IL-4 receptor on A549 cells overexpressing IL-4 receptor (human) (UniProt P24394). The test can be described thus: confocal microscopy of A549 cells overexpressing IL-4 receptor, ferritin at 400 nM, anti-ferritin light chain antibody and Alexa Fluor 488 secondary.
On to B2, for which the binding result is recorded as “binds”.

As to B3, the binding entry was “binds”.

Regarding B4, the binding result is recorded as “binds”.

B5: the binding entry is “binds”.

The next test addresses IL-4 receptor protein immobilised on carboxymethyl dextran chip (SPR) (Homo sapiens (Human)) (UniProt P24394). The test can be described thus: SPR, IL-4 receptor immobilised, 0.65 nM to 41.6 nM.
As for B2, the binding entry is “binds”.

Consider B3, for which the binding result is on record as “binds”.

As to B4, the binding result is listed as “binds”.

B5: the binding entry is listed as “binds”.

For a further test, the target named is IL-4 receptor on A549 cells overexpressing IL-4 receptor (human) (UniProt P24394). Description: flow cytometry on A549 cells. Background: A flow cytometer gives signals particle by particle.
As for B1, the binding result was “binds”.

Regarding B2, the binding result is listed as “binds”.

The target is the same in another test. The test can be described thus: flow cytometry on A549 cells, 400 nM.
For B2, the binding result is on record as “binds”.

On to B3, for which the binding entry is “binds”.

As to B4, the binding result was “binds”.

For B5, the binding result is “binds”.

The target of the next test is IL-4 receptor protein immobilised on carboxymethyl dextran chip (SPR) (Homo sapiens (Human)) (UniProt P24394). The test can be described thus: SPR, IL-4 receptor protein immobilised on carboxymethyl dextran chip, RU against ferritin concentration 0.65-41.6 nM.
B2: the binding result was “binds”.

As for B3, the binding entry is recorded as “binds”.

For B4, the binding entry is reported as “binds”.

Take B5: the binding result is listed as “binds”.
